What is called logD is the decadic logarithm of the distribution of all forms, ionised or not, between an organic phase and buffer at a given pH. A high value points to a more lipophilic compound.

This series in a line: Lipophilicity, log D of the compound. Conditions: octanol/water.

The structures appear in SMILES notation. Some results are limits rather than exact numbers.

Regarding `O=C(Nc1ccc(N2CCCCC2)cc1)c1nnc(Nc2ccccc2F)o1`, the logD was > 4.2.
To `O=C(Nc1ccc(N2CCOCC2)nc1)c1nnc(Nc2cccc(Oc3ccccc3)c2)o1` belongs > 4.2.

The record behind these values is ChEMBL document CHEMBL2034922, “Identification, optimisation and in vivo evaluation of oxadiazole DGAT-1 inhibitors for the treatment of obesity and diabetes” (Bioorg Med Chem Lett, 2012).
